Results deposited as PubChem BioAssay AID504784 (Drosophila RNAi Screening Center, 2011).
The deposit covers about 17,000 reagents; this is a random part of those with a known target gene and a result. 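Each column is one replicate's B-score; the combined score over replicates was not deposited, so single values may mislead.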 Names joined by + are all predicted targets of the reagent. No sequences are given here.

Aim: 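Fly genes whose silencing alters how much lipid cells keep in droplets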 (primary screen)
Cell system: Drosophila Kc167 embryonic cells
Reagents: long dsRNA against Drosophila genes, about 250 ng dsRNA per well
Duration: 4 days
Challenge: cells fed 400 µM oleic acid bound to BSA
Detection: 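Microscope images give a droplet-to-nucleus area ratio, taken as log and converted to a screen-wide B-score; higher values mean greater lipid storage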
Direction: droplet/nuclear area B-score: higher = more stored lipid (overstorage)

| Target gene | DRSC id | droplet/nuclear area B-score, replicate 1 | droplet/nuclear area B-score, replicate 2 | droplet/nuclear area B-score, replicate 3 |
| --- | --- | --- | --- | --- |
| Gr59e (GeneID 37725) | DRSC04276 | 1.52 | 1.5 | – |
| Drep3 (GeneID 36292) | DRSC06312 | -1.09 | -0.457 | 0.00638 |
| Drep3 (GeneID 36292) | DRSC07529 | -0.37 | 0.0849 | – |
| Drep3 (GeneID 36292) | DRSC22344 | -0.0246 | 0.0128 | – |
| Spn42Db (GeneID 35599) | DRSC05009 | -0.0208 | -0.162 | – |
| ATP8B (GeneID 41469) | DRSC14961 | -0.0931 | 0.696 | – |
| Osi18 (GeneID 40775) | DRSC12181 | 1.75 | -1.01 | – |
| para (GeneID 32619) | DRSC20360 | -0.971 | -0.605 | – |
| CG7322 (GeneID 32880) | DRSC20036 | 0.604 | 0.0672 | – |
| inaC (GeneID 36897) | DRSC07632 | -0.0192 | 4.11 | – |
| mei-S332 (GeneID 37523) | DRSC04704 | 0.31 | 0.428 | – |
| CG13250 (GeneID 40284) | DRSC11698 | -3.04 | -0.475 | – |
| Gr47a (GeneID 36094) | DRSC06221 | -0.646 | -0.175 | – |
| Aatf (GeneID 33943) | DRSC02131 | -0.814 | -0.647 | – |
| Ctr1A (GeneID 31601) | DRSC18336 | 4 | 4.08 | – |
| CG11345 (GeneID 38548) | DRSC08176 | -3.08 | -1.98 | – |
| CG5196 (GeneID 41522) | DRSC15735 | 0.951 | 0.705 | – |
| Coq4 + frc | DRSC10381 | -0.795 | -2.42 | – |
| Coq4 + frc | DRSC10382 | 1.82 | -1.26 | – |
| ATP7 (GeneID 32142) | DRSC19819 | -1.51 | -1.48 | -0.662 |
| Tudor-SN (GeneID 38045) | DRSC08581 | 0.523 | -1.44 | – |
| PAN2 (GeneID 35893) | DRSC07115 | 0.00861 | 0.019 | – |
| CG11151 (GeneID 32335) | DRSC19387 | 0.595 | 0.279 | – |
| Cap-H2 (GeneID 41289) | DRSC14908 | 0.00357 | -0.225 | – |
| phtf (GeneID 35583) | DRSC05023 | 0.568 | -0.58 | – |
| dco (GeneID 43673) | DRSC16929 | 1.05 | – | – |
| CG17196 (GeneID 43112) | DRSC15189 | -1.38 | -0.397 | – |
| TwdlZ (GeneID 318092) | DRSC19154 | -0.561 | -0.664 | – |
| CG5493 + CG5327 | DRSC06938 | 0.334 | -0.38 | – |
| Cyp4e1 (GeneID 44632) | DRSC07370 | 1.08 | 0.704 | – |
| GV1 (GeneID 38238) | DRSC08228 | -0.466 | -0.00922 | – |
| slv (GeneID 35773) | DRSC07685 | -0.0814 | 0.135 | – |
| CG42365 (GeneID 37469) | DRSC04266 | -0.111 | -0.491 | – |
| qsm (GeneID 47065) | DRSC05896 | 0.505 | 0.103 | – |
| qsm (GeneID 47065) | DRSC06393 | 0.499 | 0.759 | – |
| CG32374 (GeneID 38848) | DRSC10986 | 0.00516 | 0.296 | – |
| 2mit (GeneID 41616) | DRSC14194 | -0.0991 | -1.36 | – |
| 2mit (GeneID 41616) | DRSC15224 | -0.689 | -1.04 | – |
| disco-r (GeneID 64875) | DRSC20173 | -2.11 | 5.58 | – |
| disco-r (GeneID 64875) | DRSC20174 | -0.259 | -0.287 | – |
| CG31463 (GeneID 40978) | DRSC14346 | 0.0108 | -0.52 | – |
| Obp56a (GeneID 37264) | DRSC06085 | -0.767 | -0.183 | – |
| CG12310 (GeneID 39634) | DRSC09878 | -0.674 | -0.372 | – |
| GABA-B-R1 (GeneID 34878) | DRSC22038 | -0.21 | -0.0119 | – |
| CG32187 (GeneID 39980) | DRSC10521 | -0.648 | -0.604 | – |
| Ugt303B2 (GeneID 42776) | DRSC14198 | -0.299 | 0.163 | – |
| Ugt303B2 (GeneID 42776) | DRSC22864 | 1.36 | 0.198 | – |
| TMEM216 (GeneID 41035) | DRSC16378 | 1.53 | -0.103 | – |
| pths (GeneID 35379) | DRSC03171 | 1.89 | 2.8 | – |
| Obp99b (GeneID 43497) | DRSC16264 | -0.478 | 1.28 | – |
| Ama (GeneID 40831) | DRSC12489 | -0.0151 | 0.276 | – |
| Duba (GeneID 39302) | DRSC10582 | 0.461 | -2.21 | – |
| Rpt3 (GeneID 32047) | DRSC20283 | 0.0195 | 1.32 | 0.0326 |
| CG14739 (GeneID 41467) | DRSC14959 | -0.0127 | -0.653 | – |
| Cyp4p2 (GeneID 35946) | DRSC07373 | -0.456 | -1.29 | – |
| CG17821 (GeneID 37159) | DRSC06696 | 0.0964 | -0.0023 | – |
| Tie (GeneID 38559) | DRSC08104 | 0.623 | -2.82 | – |
| Tie (GeneID 38559) | DRSC08702 | -2.69 | – | – |

Entries listed so far whose gene name begins with P or p:
| Target gene | DRSC id | droplet/nuclear area B-score, replicate 1 | droplet/nuclear area B-score, replicate 2 | droplet/nuclear area B-score, replicate 3 |
| --- | --- | --- | --- | --- |
| para (GeneID 32619) | DRSC20360 | -0.971 | -0.605 | – |
| PAN2 (GeneID 35893) | DRSC07115 | 0.00861 | 0.019 | – |
| phtf (GeneID 35583) | DRSC05023 | 0.568 | -0.58 | – |
| pths (GeneID 35379) | DRSC03171 | 1.89 | 2.8 | – |

The list goes on.
| Target gene | DRSC id | droplet/nuclear area B-score, replicate 1 | droplet/nuclear area B-score, replicate 2 | droplet/nuclear area B-score, replicate 3 |
| --- | --- | --- | --- | --- |
| Rpt5 (GeneID 42805) | DRSC16842 | 0.737 | 2.11 | – |
| CG15605 (GeneID 36933) | DRSC06558 | -0.314 | -0.473 | – |
| CG7289 (GeneID 33372) | DRSC00697 | 1 | 0.0494 | – |
| Pop2 (GeneID 39366) | DRSC10537 | 3.84 | 1.37 | – |
| fidipidine (GeneID 36808) | DRSC07618 | -0.0707 | -0.951 | – |
| Trm7-32 (GeneID 42056) | DRSC15741 | 0.276 | 0.373 | – |
| Mtpalpha (GeneID 34276) | DRSC01994 | 0.749 | 1.89 | – |
| Psi (GeneID 36889) | DRSC07519 | -0.958 | -0.751 | – |
| PpY-55A (GeneID 48532) | DRSC07513 | -0.175 | 0.35 | – |
| PpY-55A (GeneID 48532) | DRSC23328 | -0.168 | -0.381 | – |
| stj (GeneID 36526) | DRSC06124 | -0.156 | 0.11 | – |
| CG30355 (GeneID 246561) | DRSC21958 | -0.182 | 1.07 | – |
| CG8958 (GeneID 32575) | DRSC20134 | -0.0927 | 2.36 | – |
| CG11425 (GeneID 40472) | DRSC11657 | 0.527 | 0.268 | – |
| CG13991 (GeneID 33868) | DRSC02323 | 2.06 | -2.02 | – |
| CG4133 (GeneID 33221) | DRSC00639 | 0.362 | -1.27 | – |
| CG4133 (GeneID 33221) | DRSC23122 | -0.489 | -0.649 | – |
| CG15579 (GeneID 50380) | DRSC18067 | -0.92 | -0.262 | – |
| CG13970 (GeneID 2768911) | DRSC02311 | -2.36 | 2.21 | – |
| Edc3 (GeneID 39957) | DRSC10620 | 1.85 | -0.0162 | 0.69 |
| Lrt (GeneID 37342) | DRSC06045 | 0.345 | -0.0977 | – |
| Tango11 (GeneID 246596) | DRSC03890 | 0.374 | -0.048 | – |
| Tango11 (GeneID 246596) | DRSC03892 | 1.17 | 0.864 | – |
| CG33137 (GeneID 36449) | DRSC22131 | -0.000971 | -1.79 | – |
| CG15443 (GeneID 33656) | DRSC00455 | -0.915 | 1.14 | – |
| Cyp9h1 (GeneID 36412) | DRSC07391 | 1.69 | -0.00382 | – |
| kl-3 (retired record) (GeneID 5740653) | DRSC20730 | -1.53 | -1.1 | – |
| kl-3 (retired record) (GeneID 5740653) | DRSC20891 | -0.53 | 0.338 | – |
| kl-3 (retired record) (GeneID 5740653) | DRSC20934 | 1.16 | -0.602 | – |
| Chrac-16 (GeneID 32166) | DRSC20343 | 2.91 | 2.34 | 0.214 |
| TrpRS-m (GeneID 39989) | DRSC10848 | 0.16 | 2.02 | 0.718 |
| CG11034 (GeneID 33810) | DRSC02121 | 0.345 | 0.00476 | – |
| CG11034 (GeneID 33810) | DRSC02122 | 0.612 | -0.724 | – |
| pnr (GeneID 44849) | DRSC17027 | -0.182 | 5.13 | – |
| CG6983 (GeneID 38964) | DRSC10757 | 2.37 | 0.0925 | – |
| NimB1 (GeneID 34813) | DRSC01880 | 0.448 | -0.0575 | – |
| CG12674 (GeneID 33384) | DRSC00348 | -0.00917 | -1.18 | – |
| CG13081 (GeneID 35245) | DRSC02185 | 0.373 | -0.872 | – |
| Tom20 (GeneID 40189) | DRSC10899 | 1.44 | 0.123 | 0.0267 |
| CG4592 (GeneID 34317) | DRSC02761 | 0.00127 | 0.248 | – |
| GstD7 (GeneID 48340) | DRSC16688 | -0.525 | -0.919 | 0.652 |
| Porin2 (GeneID 34499) | DRSC02584 | 0.136 | -0.0988 | – |
| Bap60 (GeneID 32268) | DRSC19337 | 3.96 | 0.748 | 1.79 |
| gammaCOP (GeneID 43717) | DRSC16955 | 6.68 | 5.2 | – |
| CG15877 (GeneID 38304) | DRSC08485 | -0.929 | 0.0834 | – |
| CG10734 (GeneID 36787) | DRSC05998 | 0.114 | -1.48 | – |
| eIF3g1 (GeneID 31243) | DRSC18427 | 2.19 | – | – |
